This assay deals with HEK293A TEAD-LUC reporter. The assay can be described thus: TEAD-luciferase reporter activity (YAP activation), robust Z score vs plate; higher = stronger YAP/TEAD activation. Conditions: 24 h.

Where a name gives a salt, the structure may show the parent alone. Some of the results follow. Repeats in this data set agree poorly, so a single value says little.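 The human kidney-derived cells carry a stably integrated construct of eight TEAD-binding elements driving luciferase, read by luminescence in a drug-repurposing library screen. A compound counts as a hit when its signal is more than five robust Z scores above the plate mean.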

For `Nc1c2ccccc2nc2ccccc12`, the TEAD-luciferase reporter activity was inactive: -0.466 (compound concentration: 200 nM), inactive: 1.8 (compound concentration: 2 uM) and inactive: 0.775 (compound concentration: 10 uM).

As for `CCOc1cccc(CN2CCCC23Cc2ccccc2CNC3=O)c1` (centres undefined), the TEAD-luciferase reporter activity by setting is: (compound concentration: 200 nM) inactive: 0.612; (compound concentration: 10 uM) inactive: -0.119.

Turning to `CC(C)CC(N)=O` [isovaleramide], the TEAD-luciferase reporter activity is inactive: -0.996 (compound concentration: 200 nM), inactive: -0.713 (compound concentration: 2 uM) and inactive: 1.35 (compound concentration: 10 uM).

Consider `COc1cc(OC)c(C(=O)CCCN2CCCC2)c(OC)c1`, for which the TEAD-luciferase reporter activity was inactive: 1.01 (compound concentration: 200 nM) and inactive: -1.45 (compound concentration: 10 uM).

For the compound `COc1cc(OC)c(C(=O)CCCN2CCCC2)c(OC)c1` [buflomedil], the TEAD-luciferase reporter activity (compound concentration: 2 uM) is inactive: -1.98.

For the compound `O[C@H](C[C@H]1c2c(F)cccc2-c2cncn21)[C@H]1CC[C@H](O)CC1` [Navoximod], the TEAD-luciferase reporter activity is, setting by setting: (compound concentration: 200 nM) inactive: 0.648; (compound concentration: 10 uM) inactive: 0.364.

Consider `CNC(=O)CN1CCN2CCN(CC(=O)NC)CC(=O)[O][Gd]([O]C(=O)C2)[O]C(=O)C1`, for which the TEAD-luciferase reporter activity was inactive: -1.08 (compound concentration: 200 nM), inactive: -0.972 (compound concentration: 2 uM) and inactive: 2.1 (compound concentration: 10 uM).

For the compound `c1ccc(C(c2ccccc2)N2CCN(CCCC3(c4ccccc4)OCCO3)CC2)cc1` [Dotarizine], the TEAD-luciferase reporter activity was inactive: -2.66 (compound concentration: 200 nM), inactive: -0.905 (compound concentration: 2 uM) and inactive: 1.45 (compound concentration: 10 uM).

Turning to `COC(=O)c1ccccc1Nc1c(Cl)ccc(C)c1Cl`, the TEAD-luciferase reporter activity was inactive: -1.44 (compound concentration: 200 nM), inactive: -0.148 (compound concentration: 2 uM) and inactive: 0.101 (compound concentration: 10 uM).

With `Cc1nc(=O)c(C#N)c(NCc2cccnc2)[nH]1` [Pelri hydrochloride], the TEAD-luciferase reporter activity (compound concentration: 200 nM) was inactive: -1.12.

As to `Cc1nc(=O)c(C#N)c(NCc2cccnc2)[nH]1` [Pelri   hydrochloride], the TEAD-luciferase reporter activity (compound concentration: 10 uM) was inactive: 0.0437.

For `COC(=O)CCC[N+](C)(C)C` [Carpronium chloride], the TEAD-luciferase reporter activity (compound concentration: 200 nM) is inactive: -2.35, the TEAD-luciferase reporter activity (compound concentration: 2 uM) was inactive: -1 and the TEAD-luciferase reporter activity (compound concentration: 10 uM) is inactive: -0.819.

Turning to `Oc1nc2cc(Cl)ccc2c(O)c1-c1ccccc1`, the TEAD-luciferase reporter activity reads like this: (compound concentration: 200 nM) inactive: -1.04; (compound concentration: 2 uM) inactive: -0.719; (compound concentration: 10 uM) inactive: 3.93.

For `CO[C@H](C(=O)NO)[C@@H](CC(C)C)C(=O)N[C@H](C(=O)Nc1ccccn1)C(C)(C)C`, the TEAD-luciferase reporter activity is inactive: -0.622 (compound concentration: 200 nM), inactive: -0.86 (compound concentration: 2 uM) and inactive: -1.48 (compound concentration: 10 uM).

Regarding `COC(=O)Nc1cccc(C)c1CNc1cccn2c(C)c(C)nc12`, the TEAD-luciferase reporter activity (compound concentration: 200 nM) was inactive: 0.945 and the TEAD-luciferase reporter activity (compound concentration: 10 uM) was inactive: -1.3.

For the compound `COC(=O)Nc1cccc(C)c1CNc1cccn2c(C)c(C)nc12` [Pumaprazole], the TEAD-luciferase reporter activity (compound concentration: 2 uM) is inactive: -1.67.

Regarding `CC(C)(C)NC(=O)c1ccc(OC/C(=C/F)CN)cc1`, the TEAD-luciferase reporter activity by setting is: (compound concentration: 200 nM) inactive: 0.847; (compound concentration: 2 uM) inactive: -1.59; (compound concentration: 10 uM) inactive: 0.753.

With `O=C(/C=C/c1ccc2c(c1)OCO2)N1CCCCC1` [Ilepcimide], the TEAD-luciferase reporter activity was inactive: 3.65 (compound concentration: 200 nM), inactive: -0.0869 (compound concentration: 2 uM) and inactive: 3.95 (compound concentration: 10 uM).

As for `C[C@H](N)C(=O)NCC(=O)N[C@H]1CSSC[C@@H](C(=O)O)NC(=O)[C@H](CO)NC(=O)[C@H]([C@@H](C)O)NC(=O)[C@H](Cc2ccccc2)NC(=O)[C@H]([C@@H](C)O)NC(=O)[C@H](CCCCN)NC(=O)[C@H](Cc2c[nH]c3ccccc23)NC(=O)[C@H](Cc2ccccc2)NC(=O)[C@H](Cc2ccccc2)NC(=O)[C@H](CC(N)=O)NC(=O)[C@H](CCCCN)NC1=O` [Somatostatin], the TEAD-luciferase reporter activity was inactive: 0.603 (compound concentration: 200 nM), inactive: -1.22 (compound concentration: 2 uM) and active: 10.2 (compound concentration: 10 uM).

For the compound `CC(C)(C)NC(=O)[C@@H]1C[C@@H]2CCCC[C@@H]2CN1C[C@@H](O)[C@H](Cc1ccccc1)NC(=O)[C@H](CC(N)=O)NC(=O)c1ccc2ccccc2n1` [saquinavir, soft gel], the TEAD-luciferase reporter activity (compound concentration: 2 uM) was inactive: -1.42.

Take `CC(C)(C)NC(=O)[C@@H]1C[C@@H]2CCCC[C@@H]2CN1C[C@@H](O)[C@H](Cc1ccccc1)NC(=O)[C@H](CC(N)=O)NC(=O)c1ccc2ccccc2n1`: the TEAD-luciferase reporter activity reads like this: (compound concentration: 200 nM) inactive: -1.22; (compound concentration: 10 uM) inactive: 1.51.

On to `CC(=O)Nc1c(-c2ccccc2)cccc1S(=O)(=O)NC(CCCc1ccc(N)cn1)C(=O)N1CCC(=C(F)F)CC1` (centres undefined), for which the TEAD-luciferase reporter activity (compound concentration: 200 nM) is inactive: 0.254, the TEAD-luciferase reporter activity (compound concentration: 2 uM) is inactive: -1.39 and the TEAD-luciferase reporter activity (compound concentration: 10 uM) was inactive: -1.64.

With `COc1ccc2c(c1)C(O)(CCCN(C)C)c1ccccc1S2` (centres undefined), the TEAD-luciferase reporter activity was inactive: -1.18 (compound concentration: 200 nM), inactive: -1.87 (compound concentration: 2 uM) and inactive: 0.0632 (compound concentration: 10 uM).

As to `Cc1cc(C(=O)N[C@@H](CCC(=O)O)C(=O)O)sc1CCC1CNc2nc(N)[nH]c(=O)c2C1` (some centres undefined) [Pelitrexol], the TEAD-luciferase reporter activity (compound concentration: 200 nM) was inactive: -0.681, the TEAD-luciferase reporter activity (compound concentration: 2 uM) is inactive: 0.499 and the TEAD-luciferase reporter activity (compound concentration: 10 uM) is inactive: 1.43.

On to `CC(=O)Nc1ccn([C@@H]2O[C@H](CO)[C@@H](O)[C@H]2O)c(=O)n1`, for which the TEAD-luciferase reporter activity by setting is: (compound concentration: 200 nM) inactive: -1.02; (compound concentration: 2 uM) inactive: 3.07; (compound concentration: 10 uM) inactive: 1.37.

For the compound `Nc1ccc(S(=O)(=O)N2CCCCCC2)cc1`, the TEAD-luciferase reporter activity was inactive: -1.82 (compound concentration: 200 nM), inactive: 0.164 (compound concentration: 2 uM) and inactive: -1.39 (compound concentration: 10 uM).

For the compound `O=C(NCCCCCCCCNC(=O)C(Cl)Cl)C(Cl)Cl`, the TEAD-luciferase reporter activity runs as follows: (compound concentration: 200 nM) inactive: -0.399; (compound concentration: 2 uM) inactive: -1.64; (compound concentration: 10 uM) inactive: -0.269.

As to `Cc1ccc(NC(=O)c2ccc(CN3CCN(C)CC3)cc2)cc1Nc1nccc(-c2cccnc2)n1` [imatinib mesilate], the TEAD-luciferase reporter activity (compound concentration: 2 uM) is inactive: -0.412.

For the compound `Cc1ccc(NC(=O)c2ccc(CN3CCN(C)CC3)cc2)cc1Nc1nccc(-c2cccnc2)n1`, the TEAD-luciferase reporter activity is inactive: -0.477 (compound concentration: 200 nM) and inactive: 1.74 (compound concentration: 10 uM).

These data come from the supplement of paper PMC10735217.
